Data published in patent US4841054A, “2,6-dimethyl-3,5-dimethoxycarbonyl-4-(5'-tri methylsilyl-2'-furyl)-1,4-dihydropyridine” (priority 1988, dated 1989).

Experiment: in vivo
Conditions: mouse, ip
Method: The mean lethal dose (LD50) was determined by the Litchfield and Wilcoxon method.

COC(=O)C1=C(C)NC(C)=C(C(=O)OC)C1c1ccccc1[N+](=O)[O-] [Nifedipine, 2,6-dimethyl-3,5-dimethoxycarbonyl-4-(O-nitrophenyl)-1,4-dihydropyridine]
LD50 at 240 h: 185 mg/kg
